No constants are given. Whether binding was seen depends on the method and setting. A result given as binding can be weak or reduced; the word gives no strength.
Target: cytoplasmic DGC domain of HsbD (HsbDs), bacterial two-hybrid fusion (Pseudomonas aeruginosa) (UniProt Q9HYQ2)
Test: two-hybrid; bacterial two-hybrid (adenylate cyclase reconstitution) in E. coli DHM1, pKT25 and pUT18C fusions; blue colonies on LB X-gal IPTG plates after 24 h at 30°C, quantified by β-galactosidase assays

The chains behind the UniProt entries cited, without tags or fusion partners. Where a name states a change or a piece, a line headed by the entry shows the natural chain unless it says otherwise.
UniProt Q9HYP8: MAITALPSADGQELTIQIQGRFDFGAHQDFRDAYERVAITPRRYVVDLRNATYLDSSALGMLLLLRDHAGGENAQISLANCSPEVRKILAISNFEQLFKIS

Substance | binding
anti-anti-sigma factor HsbA, bacterial two-hybrid fusion (from UniProt Q9HYP8) | binds
HptB, bacterial two-hybrid fusion (from UniProt Q9HYQ0) | binds weakly
